Each structure is given as a SMILES string. “And” between values parts separate entries of the source, which are not always exact repeats. Equal entries are not always repeated. The list shows a part of the results. These are further read-outs of the screen, such as a control signal, another cell line or another target. No call is given for them.

The nature of the experiment: protection against mutant huntingtin cytotoxicity, PC12 cells, LDH release (AID 1610). The note with it: PC12 mutant huntingtin toxicity, final LDH at 4 uM, stronger effect = lower value.
The compound `N#C/C(=C\c1ccc(O)cc1)C(=O)O` returned a normalised LDH release of 1.51.

On to `COC(=O)C1C(OC(=O)c2ccccc2)CC2CCC1N2C` (stereo unspecified), for which the normalised LDH release was found to be 0.799.

Compound `OC1CCCCC1N1CCC(c2ccccc2)CC1` (stereo unspecified) came in with a normalised LDH release of 0.377.

Regarding `CN1C[C@H](CO)C=C2c3cccc4[nH]cc(c34)C[C@H]21`, the normalised LDH release came out at 0.83.

The compound `CC[N+]1(C)CCCC(OC(=O)C(O)(c2ccccc2)c2ccccc2)C1` (stereo unspecified) returned a normalised LDH release of 0.964.

As for `CCCCCCCCCCCCCCCC[n+]1ccccc1`, the normalised LDH release is 0.845.

Regarding `CC(=O)OCC1=C(C(=O)O)N2C(=O)[C@@H](NC(=O)CCCC(N)C(=O)O)C2SC1` (stereo partly specified), the normalised LDH release came to 0.862.

In the case of `CCCCCCCCCCCCCCCC[N+](C)(C)C`, the normalised LDH release turned out to be 0.889.

In turn, `CC(CCc1ccccc1)NC(C)C(O)c1ccc(O)cc1` (stereo unspecified) showed a normalised LDH release of 1.2.

In the case of `CNC(C)C(O)c1ccccc1` (stereo unspecified), the normalised LDH release is 0.526 and 1.03.

Take `CN1CC(CNC(=O)OCc2ccccc2)CC2c3cccc4c3c(cn4C)CC21` (stereo unspecified): the normalised LDH release stood at 0.659.

Turning to `CNC(C)(C)Cc1ccccc1`, the normalised LDH release stood at 0.586.

Regarding `CN[C@@H](C)[C@@H](O)c1ccccc1`, the normalised LDH release was found to be 0.544.

With `C[C@@H]([C@H](O)c1ccccc1)N(C)C`, the normalised LDH release worked out at 1.13.

With `C/C=C(\C)C(=O)O[C@H]1C[C@@H](OC(C)=O)[C@@]2(C(=O)OC)CO[C@@H]3C2[C@]12CO[C@](O)(C(=O)OC)[C@H]2[C@](C)(C12O[C@@]1(C)[C@H]1C[C@@H]2OC2OC=C[C@@]21O)[C@@H]3O` (stereo partly specified), the normalised LDH release came to 1.02.

`Cc1cccc(C)c1NC1=NCCCS1`: the normalised LDH release turned out to be 0.482.

Turning to `C[n+]1cc2c3c(ccc2c2ccc4cc5c(cc4c21)OCO5)OCO3`, the normalised LDH release is 0.828.

On to `O=c1ccc2cc(O[C@H]3O[C@H](CO)[C@@H](O)[C@H](O)[C@H]3O)c(O)cc2o1`, for which the normalised LDH release came out at 0.885.

The compound `CC[C@@]1(O)C(=O)OCc2c1cc1n(c2=O)Cc2cc3ccccc3nc2-1` displayed a normalised LDH release of 0.931.

In turn, `CN1CC[C@]23c4c5ccc(O)c4O[C@H]2[C@H](O)C=CC3[C@H]1C5` (stereo partly specified) yielded a normalised LDH release of 1.03.

As to `NCCC(O)C(=O)N[C@@H]1C[C@H](N)[C@@H](O[C@H]2O[C@H](CN)[C@@H](O)[C@H](O)[C@H]2N)[C@H](OC2O[C@H](CO)[C@H](O)[C@H]2O)[C@H]1O` (stereo partly specified), the normalised LDH release stood at 0.622.

In the case of `C[C@@H]1CC[C@H]2[C@@H](C)C(=O)O[C@@H]3OC4(C)CC[C@@H]1[C@]32OO4`, the normalised LDH release was 0.861.

`COc1ccc(C[C@H]2NC[C@H](O)[C@H]2OC(C)=O)cc1` yielded a normalised LDH release of 1.14.

Compound `C[C@H](N)[C@H](O)c1ccc(O)c(O)c1` showed a normalised LDH release of 0.796.

In turn, `CC(=O)O[C@H]1C[C@H](O[C@H]2[C@@H](O)C[C@H](O[C@H]3[C@@H](O)C[C@H](O[C@H]4CC[C@@]5(C)C(CCC6C5C[C@@H](O)[C@]5(C)[C@@H](C7=CC(=O)OC7)CC[C@]65O)C4)O[C@@H]3C)O[C@@H]2C)O[C@H](C)[C@H]1O[C@@H]1O[C@H](CO)[C@@H](O)[C@H](O)[C@H]1O` (stereo partly specified) registered a normalised LDH release of 1.07.

Take `CN=C1CN(O)C(c2ccccc2)=c2cc(Cl)ccc2=N1`: the normalised LDH release was 0.847.

Take `Cc1cc2c(C(C)C)c(O)c(O)c(C=O)c2c(O)c1-c1c(C)cc2c(C(C)C)c(O)c(O)c(C=O)c2c1O`: the normalised LDH release stood at 1.03.

`C[C@]12CCC(=O)C=C1CCC1C2CC[C@@]2(C)C1CC[C@@H]2O` (stereo partly specified) showed a normalised LDH release of 1.16.

The compound `C[N+](C)(C)CC(=O)[O-]` displayed a normalised LDH release of 0.928.

Compound `CC(C)(C)NCC(O)c1cc(Cl)c(N)c(Cl)c1` (stereo unspecified) displayed a normalised LDH release of 0.842.

Turning to `C=C[C@H]1CN2CC[C@H]1C[C@@H]2[C@@H](OC(=O)OCC)c1ccnc2ccc(OC)cc12`, the normalised LDH release was 0.693.

`Clc1ccc(C(OCCN2CCCCC2)c2ccccc2)cc1` (stereo unspecified): the normalised LDH release was found to be 0.747.

`C[C@H]1C(=O)O[C@@H]2CCN3CC=C(COC(=O)[C@](C)(O)[C@]1(C)O)[C@H]23` returned a normalised LDH release of 0.427.

The compound `COc1ccc2c(c1)[C@]13CCCC[C@H]1[C@H](C2)N(C)CC3` displayed a normalised LDH release of 0.585.

The compound `CCC(=O)O[C@H]1CCC2C3CCC4=CC(=O)CC[C@]4(C)C3CC[C@@]21C` (stereo partly specified) had a normalised LDH release of 1.15.

Compound `CC(C)CC(NC(=O)C(Cc1ccccc1)NC(=O)CNC(=O)CNC(=O)C(N)Cc1ccc(O)cc1)C(=O)O` (stereo unspecified) had a normalised LDH release of 0.98.

These data come from PubChem BioAssay.
